Results: patent US11124541B2, “Chimeric melanocortin ligands and methods of use thereof” (REGENTS OF THE UNIVERSITY OF MINNESOTA, priority 2016, dated 2021)
Some results were stated once for a whole list of compounds, not compound by compound. Non-standard residues stand in square brackets, D forms with d. Residues, ends and D or L forms follow the SMILES beside them.

The chains behind the UniProt entries cited, without tags or fusion partners. Where a name states a change or a piece, a line headed by the entry shows the natural chain unless it says otherwise.
UniProt P41149: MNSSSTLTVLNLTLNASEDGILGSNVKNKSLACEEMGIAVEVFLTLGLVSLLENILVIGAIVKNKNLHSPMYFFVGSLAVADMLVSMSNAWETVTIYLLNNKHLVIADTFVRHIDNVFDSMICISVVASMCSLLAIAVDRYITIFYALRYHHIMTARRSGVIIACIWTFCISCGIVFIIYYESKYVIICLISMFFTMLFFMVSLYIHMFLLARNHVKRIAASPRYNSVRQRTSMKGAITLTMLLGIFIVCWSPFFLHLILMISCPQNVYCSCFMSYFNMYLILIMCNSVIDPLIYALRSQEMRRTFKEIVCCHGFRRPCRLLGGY

Biological target: mMC5R (Mus musculus, UniProt P41149)
Test: cAMP AlphaScreen agonist assay, HEK293 cells stably expressing mouse MC5R
Conditions: agonist potency

C[C@@H]1NC(=O)[C@H](CC(N)=O)NC(=O)[C@H](Cc2c[nH]c3ccccc23)NC(=O)[C@H](CCCNC(=N)N)NC(=O)[C@@H](Cc2ccccc2)NC(=O)[C@H](Cc2c[nH]cn2)NC(=O)[C@@H]2CCCN2C(=O)[C@H]2CCCN2C1=O [MDE6-3-2c, c[Pro-His-DPhe-Arg-Trp-Asn-Ala-DPro]] (cyclo(PH[dF]RWNA[dP]))
selectivity for the mMC5R over the mMC3R: > 100 fold
